The list shows a part of the results. Hit calls seldom repeat between salt and free forms of one compound.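 Kinases, fused to nanoluciferase, were expressed in K562 cells; luminescence was measured every 4 h from 2 to 18 h as percent of control (DMSO = 100%, positive control = 0%). A time point is decreased if signal falls significantly (2 sigma). Hits were called by the authors by a rule that is not shown; the count of time points alone does not decide it.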
target: CSNK1A1 (UniProt P48729); assay: kinase-Nluc reporter destabilization hit call (1 = scored as downregulated) (binary); higher = compound decreases kinase abundance; details: K562; 2-18 h

Chains of the proteins cited; added tags and fusions are not shown. Lines headed by an entry give the natural chain unless they say otherwise; changes in a name come on top.
UniProt P48729: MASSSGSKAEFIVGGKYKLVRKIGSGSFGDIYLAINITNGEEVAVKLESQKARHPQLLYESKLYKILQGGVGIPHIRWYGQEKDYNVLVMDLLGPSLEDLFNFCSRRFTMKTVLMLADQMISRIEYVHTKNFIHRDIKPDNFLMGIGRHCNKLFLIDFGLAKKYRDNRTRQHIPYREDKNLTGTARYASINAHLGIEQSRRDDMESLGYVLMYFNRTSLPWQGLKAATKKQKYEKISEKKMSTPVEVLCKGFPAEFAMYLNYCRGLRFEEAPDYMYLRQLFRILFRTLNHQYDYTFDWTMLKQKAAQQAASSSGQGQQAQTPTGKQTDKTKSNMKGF

kinase-Nluc reporter destabilization hit call, inactive:
CC1(C)CC=C(c2nc(C3CC(C)(C)OC(C)(C)C3)ccc2NC(=O)c2nc(C#N)c[nH]2)CC1 [Edicotinib] (2.5 µM) 0
CC(C)CC(=O)Nc1n[nH]c2c1CN(C(=O)C1CCN(C)CC1)C2(C)C (2.5 µM) 0
Nc1ncnc2c1c(-c1ccc(Oc3ccccc3)cc1)cn2C1CCCC1 (2.5 µM) 0
CC(=O)NCC(=O)N1[C@@H]2CC[C@H]1c1ccc(Nc3ncc(C(F)(F)F)c(NC4CCC4)n3)cc12 (2.5 µM) 0
Cc1nc(-c2cnc(NC(C)C)n(C)c2=O)ccc1Oc1ccnc(-c2cnn(C)c2)c1 (2.5 µM) 0
CN(C)C(=O)/C(C#N)=C/c1ccc(-c2nc3cnc4[nH]ccc4c3n2C2CCCCC2)o1 (10 µM) 0
CCCS(=O)(=O)Nc1ccc(F)c(C(=O)c2c[nH]c3ncc(Cl)cc23)c1F (10 µM) 0
CNC(=O)c1cccc(-c2ccc3c(N4CCOC[C@@H]4C)nc(N4CCOC[C@@H]4C)nc3n2)c1 [Vistusertib] (2.5 µM) 0
COCCNCCc1cccc(Nc2ncc3c(n2)-c2ccccc2[C@H](c2ccccc2F)C3)c1 [Derazantinib] (2.5 µM) 0
Cc1c(C(=O)N2CCOc3ccc(-c4ccc(N)nc4)cc3C2)ccc(S(C)(=O)=O)c1F (10 µM) 0
Cc1ccc(NC(=O)Nc2nnc(Sc3ncnc4cc(OCCCN5CCOCC5)ccc34)s2)cc1 (10 µM) 0
N#CC(=Cc1ccc(O)c(O)c1)C(=O)NCc1ccccc1 (mixture of isomers) (10 µM) 0
